Where a name gives a salt, the structure may show the parent alone. Some of the results follow. The calls rarely recur for the same compound in another form.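 Kinases were expressed as nanoluciferase fusions in K562 cells and luminescence was read every 4 h between 2 and 18 h as percent of control, DMSO set to 100% and a positive control to 0%. A time point counts as decreased when the signal drops significantly (2 sigma). The hit call is the authors' own, does not follow from the count of time points alone, and its rule is not shown.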
Legend:
Assay in all cases: number of time points (of 5) at which kinase-Nluc abundance scored as decreased, DMSO-normalised (count); higher = more persistent destabilization
Conditions in all cases: K562; 2-18 h
CAMK2A = CAMK2A (UniProt Q9UQM7)
CAMK2G = CAMK2G (UniProt Q13555)
CDK10 = CDK10 (UniProt Q15131)
CDK2 = CDK2 (UniProt P24941)
CDK3 = CDK3 (UniProt Q00526)
CDK5 = CDK5 (UniProt Q00535)
CDK6 = CDK6 (UniProt Q00534)
CHEK2 = CHEK2 (UniProt O96017)
CSF1R = CSF1R (UniProt P07333)
CSK = CSK (UniProt P41240)
CSNK1A1 = CSNK1A1 (UniProt P48729)
CSNK1D = CSNK1D (UniProt P48730)
DDR1 = DDR1 (UniProt Q08345)
DYRK1B = DYRK1B (UniProt Q9Y463)
DYRK2 = DYRK2 (UniProt Q92630)
EGFR = EGFR (UniProt P00533)
EGFR_G719S = EGFR_G719S (UniProt P00533)
EGFR_G719S_T790M = EGFR_G719S_T790M (UniProt P00533)
EGFR_L718V = EGFR_L718V (UniProt P00533)
EGFR_L858R = EGFR_L858R (UniProt P00533)

Protein sequences, listed by entry. Tags and fused reporters are not part of them. Lines headed by an entry give the natural chain unless they say otherwise; changes in a name come on top.
UniProt Q9UQM7, whole entry: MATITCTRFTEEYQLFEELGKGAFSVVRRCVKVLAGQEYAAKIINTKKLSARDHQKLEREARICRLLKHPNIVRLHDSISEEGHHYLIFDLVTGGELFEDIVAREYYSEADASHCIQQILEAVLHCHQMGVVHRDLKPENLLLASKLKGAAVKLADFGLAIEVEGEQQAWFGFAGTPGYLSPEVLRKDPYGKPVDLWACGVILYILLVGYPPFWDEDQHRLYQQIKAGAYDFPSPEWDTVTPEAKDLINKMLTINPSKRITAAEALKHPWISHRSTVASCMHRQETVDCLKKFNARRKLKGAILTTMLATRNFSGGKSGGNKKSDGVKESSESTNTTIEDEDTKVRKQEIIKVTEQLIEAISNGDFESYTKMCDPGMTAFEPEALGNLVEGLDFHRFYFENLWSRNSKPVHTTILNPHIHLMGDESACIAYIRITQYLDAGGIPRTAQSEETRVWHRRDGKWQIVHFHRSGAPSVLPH
UniProt Q13555: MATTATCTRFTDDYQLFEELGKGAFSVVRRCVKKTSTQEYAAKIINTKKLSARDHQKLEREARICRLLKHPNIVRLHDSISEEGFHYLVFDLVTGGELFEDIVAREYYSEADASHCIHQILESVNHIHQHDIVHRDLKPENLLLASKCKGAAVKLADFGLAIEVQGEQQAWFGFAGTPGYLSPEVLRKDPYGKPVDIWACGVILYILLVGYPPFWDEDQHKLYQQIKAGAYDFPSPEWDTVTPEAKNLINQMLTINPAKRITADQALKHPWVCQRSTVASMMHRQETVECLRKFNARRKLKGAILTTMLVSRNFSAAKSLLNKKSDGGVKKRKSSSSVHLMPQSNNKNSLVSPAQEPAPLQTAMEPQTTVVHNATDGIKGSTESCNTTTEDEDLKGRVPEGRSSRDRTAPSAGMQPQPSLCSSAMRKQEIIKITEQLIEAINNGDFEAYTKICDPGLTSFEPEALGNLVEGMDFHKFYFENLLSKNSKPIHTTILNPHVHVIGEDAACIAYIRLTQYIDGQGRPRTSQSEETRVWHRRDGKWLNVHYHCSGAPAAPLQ
UniProt Q15131: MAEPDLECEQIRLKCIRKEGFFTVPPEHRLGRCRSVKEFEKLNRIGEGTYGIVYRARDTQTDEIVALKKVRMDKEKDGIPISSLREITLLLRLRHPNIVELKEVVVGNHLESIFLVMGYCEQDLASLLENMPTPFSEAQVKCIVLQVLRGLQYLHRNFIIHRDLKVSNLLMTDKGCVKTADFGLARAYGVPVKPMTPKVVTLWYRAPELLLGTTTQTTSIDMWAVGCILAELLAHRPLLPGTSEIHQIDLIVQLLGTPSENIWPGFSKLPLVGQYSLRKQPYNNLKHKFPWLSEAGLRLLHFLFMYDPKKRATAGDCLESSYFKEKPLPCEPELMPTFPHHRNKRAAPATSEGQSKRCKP
UniProt Q00526: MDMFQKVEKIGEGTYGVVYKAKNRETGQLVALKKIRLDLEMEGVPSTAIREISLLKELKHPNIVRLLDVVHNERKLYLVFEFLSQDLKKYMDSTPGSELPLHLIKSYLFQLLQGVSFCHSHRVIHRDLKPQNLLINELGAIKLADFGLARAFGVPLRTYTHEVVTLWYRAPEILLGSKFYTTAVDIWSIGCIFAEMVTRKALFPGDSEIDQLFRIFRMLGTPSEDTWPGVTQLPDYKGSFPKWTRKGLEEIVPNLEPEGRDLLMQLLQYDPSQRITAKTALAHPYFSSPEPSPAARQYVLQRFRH
UniProt Q00535, whole entry, looked up: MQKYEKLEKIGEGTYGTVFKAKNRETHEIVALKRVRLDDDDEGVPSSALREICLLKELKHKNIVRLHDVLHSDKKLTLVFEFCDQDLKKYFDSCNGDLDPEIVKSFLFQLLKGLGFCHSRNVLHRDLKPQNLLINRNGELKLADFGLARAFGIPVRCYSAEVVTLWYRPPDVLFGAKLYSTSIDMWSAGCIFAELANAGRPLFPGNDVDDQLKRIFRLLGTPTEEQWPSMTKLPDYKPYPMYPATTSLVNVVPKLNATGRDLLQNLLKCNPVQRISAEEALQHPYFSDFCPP
UniProt Q00534, whole entry: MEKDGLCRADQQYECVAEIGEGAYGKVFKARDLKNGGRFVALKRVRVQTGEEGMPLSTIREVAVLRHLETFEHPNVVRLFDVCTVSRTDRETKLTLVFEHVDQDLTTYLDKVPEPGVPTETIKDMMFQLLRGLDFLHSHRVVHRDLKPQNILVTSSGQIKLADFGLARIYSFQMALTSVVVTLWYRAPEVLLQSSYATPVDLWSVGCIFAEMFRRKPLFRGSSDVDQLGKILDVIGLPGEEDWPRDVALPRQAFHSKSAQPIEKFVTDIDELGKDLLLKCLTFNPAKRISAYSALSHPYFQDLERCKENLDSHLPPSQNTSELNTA
UniProt O96017, whole entry: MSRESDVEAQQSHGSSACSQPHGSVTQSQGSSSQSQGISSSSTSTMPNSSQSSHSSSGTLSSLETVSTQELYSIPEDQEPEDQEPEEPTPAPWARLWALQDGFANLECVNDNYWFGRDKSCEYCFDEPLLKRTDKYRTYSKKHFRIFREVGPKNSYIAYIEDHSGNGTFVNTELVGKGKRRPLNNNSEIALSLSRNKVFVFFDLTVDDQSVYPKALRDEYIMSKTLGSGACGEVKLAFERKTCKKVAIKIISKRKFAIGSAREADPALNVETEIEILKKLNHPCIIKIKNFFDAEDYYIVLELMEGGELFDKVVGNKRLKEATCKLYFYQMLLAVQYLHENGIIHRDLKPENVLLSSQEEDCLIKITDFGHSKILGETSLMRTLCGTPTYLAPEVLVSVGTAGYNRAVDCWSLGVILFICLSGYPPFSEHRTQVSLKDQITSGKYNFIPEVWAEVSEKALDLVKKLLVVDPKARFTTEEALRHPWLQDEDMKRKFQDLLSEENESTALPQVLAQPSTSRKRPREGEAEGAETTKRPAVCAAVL
UniProt P41240: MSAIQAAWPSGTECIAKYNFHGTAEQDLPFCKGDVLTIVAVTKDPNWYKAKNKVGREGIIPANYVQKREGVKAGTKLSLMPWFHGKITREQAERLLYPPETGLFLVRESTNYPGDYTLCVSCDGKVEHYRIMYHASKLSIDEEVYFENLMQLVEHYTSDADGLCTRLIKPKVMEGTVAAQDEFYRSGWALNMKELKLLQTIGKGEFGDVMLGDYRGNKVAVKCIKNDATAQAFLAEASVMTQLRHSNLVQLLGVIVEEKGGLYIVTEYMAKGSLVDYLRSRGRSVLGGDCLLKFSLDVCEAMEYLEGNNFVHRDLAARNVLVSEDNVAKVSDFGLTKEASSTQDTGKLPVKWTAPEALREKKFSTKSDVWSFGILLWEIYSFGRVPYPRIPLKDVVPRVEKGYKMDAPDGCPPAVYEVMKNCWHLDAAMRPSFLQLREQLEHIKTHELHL
UniProt P48729: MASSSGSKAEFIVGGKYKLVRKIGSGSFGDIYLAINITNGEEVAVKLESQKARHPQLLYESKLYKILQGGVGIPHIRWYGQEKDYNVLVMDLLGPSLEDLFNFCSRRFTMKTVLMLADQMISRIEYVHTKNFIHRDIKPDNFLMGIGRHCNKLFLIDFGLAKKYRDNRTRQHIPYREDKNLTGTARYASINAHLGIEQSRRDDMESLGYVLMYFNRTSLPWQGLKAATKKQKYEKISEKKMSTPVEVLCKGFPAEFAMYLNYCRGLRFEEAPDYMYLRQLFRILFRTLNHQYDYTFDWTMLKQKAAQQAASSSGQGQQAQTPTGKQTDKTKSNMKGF
UniProt P48730: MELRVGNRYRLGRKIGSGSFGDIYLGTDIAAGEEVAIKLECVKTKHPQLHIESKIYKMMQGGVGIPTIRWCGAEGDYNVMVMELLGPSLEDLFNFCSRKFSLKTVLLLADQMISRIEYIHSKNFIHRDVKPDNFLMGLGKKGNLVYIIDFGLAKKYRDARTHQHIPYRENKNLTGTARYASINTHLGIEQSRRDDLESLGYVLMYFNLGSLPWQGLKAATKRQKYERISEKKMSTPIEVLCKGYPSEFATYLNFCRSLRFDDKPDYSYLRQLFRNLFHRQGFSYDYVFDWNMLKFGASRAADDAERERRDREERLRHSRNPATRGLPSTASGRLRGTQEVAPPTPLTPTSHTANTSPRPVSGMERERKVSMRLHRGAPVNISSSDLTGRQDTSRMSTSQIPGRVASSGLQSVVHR
UniProt Q08345: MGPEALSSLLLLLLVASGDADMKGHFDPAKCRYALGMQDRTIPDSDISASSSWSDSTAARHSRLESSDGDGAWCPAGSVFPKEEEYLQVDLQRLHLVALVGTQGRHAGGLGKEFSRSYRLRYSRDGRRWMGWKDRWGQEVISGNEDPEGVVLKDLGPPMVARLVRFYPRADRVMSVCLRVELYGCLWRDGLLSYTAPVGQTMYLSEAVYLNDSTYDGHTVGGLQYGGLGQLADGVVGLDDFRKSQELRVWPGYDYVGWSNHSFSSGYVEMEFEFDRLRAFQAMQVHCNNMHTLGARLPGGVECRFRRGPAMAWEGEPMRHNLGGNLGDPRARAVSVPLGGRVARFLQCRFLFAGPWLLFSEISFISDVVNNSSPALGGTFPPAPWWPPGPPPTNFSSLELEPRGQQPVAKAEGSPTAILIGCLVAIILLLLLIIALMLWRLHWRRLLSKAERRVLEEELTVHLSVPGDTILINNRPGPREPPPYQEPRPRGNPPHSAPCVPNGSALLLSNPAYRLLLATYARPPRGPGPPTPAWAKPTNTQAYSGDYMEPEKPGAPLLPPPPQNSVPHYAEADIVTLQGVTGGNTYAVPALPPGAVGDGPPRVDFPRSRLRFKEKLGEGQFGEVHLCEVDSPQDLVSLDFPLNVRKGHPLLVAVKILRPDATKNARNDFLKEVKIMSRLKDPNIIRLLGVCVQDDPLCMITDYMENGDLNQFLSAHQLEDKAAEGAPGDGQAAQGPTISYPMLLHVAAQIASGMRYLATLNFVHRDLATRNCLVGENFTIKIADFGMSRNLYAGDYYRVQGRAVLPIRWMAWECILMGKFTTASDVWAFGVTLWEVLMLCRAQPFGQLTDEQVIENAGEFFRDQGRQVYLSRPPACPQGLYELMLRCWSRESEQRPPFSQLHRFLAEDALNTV
UniProt Q9Y463, whole entry, looked up: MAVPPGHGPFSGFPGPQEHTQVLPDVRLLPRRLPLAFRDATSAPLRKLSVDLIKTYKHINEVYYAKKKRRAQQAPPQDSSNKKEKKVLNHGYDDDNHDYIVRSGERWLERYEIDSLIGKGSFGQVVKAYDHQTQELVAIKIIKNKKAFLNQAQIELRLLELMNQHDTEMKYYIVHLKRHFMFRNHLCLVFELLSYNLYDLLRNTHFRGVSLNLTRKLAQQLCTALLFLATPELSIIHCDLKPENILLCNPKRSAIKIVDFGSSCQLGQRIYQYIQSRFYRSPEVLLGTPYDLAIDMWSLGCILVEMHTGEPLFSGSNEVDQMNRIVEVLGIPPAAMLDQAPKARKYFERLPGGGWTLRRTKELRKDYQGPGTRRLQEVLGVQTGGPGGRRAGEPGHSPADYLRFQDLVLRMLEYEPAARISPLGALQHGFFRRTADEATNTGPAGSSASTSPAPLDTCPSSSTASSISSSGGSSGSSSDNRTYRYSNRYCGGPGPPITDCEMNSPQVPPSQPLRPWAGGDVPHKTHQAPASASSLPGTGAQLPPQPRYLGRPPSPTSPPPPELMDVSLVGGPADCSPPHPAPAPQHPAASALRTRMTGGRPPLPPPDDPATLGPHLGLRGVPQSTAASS
UniProt Q92630: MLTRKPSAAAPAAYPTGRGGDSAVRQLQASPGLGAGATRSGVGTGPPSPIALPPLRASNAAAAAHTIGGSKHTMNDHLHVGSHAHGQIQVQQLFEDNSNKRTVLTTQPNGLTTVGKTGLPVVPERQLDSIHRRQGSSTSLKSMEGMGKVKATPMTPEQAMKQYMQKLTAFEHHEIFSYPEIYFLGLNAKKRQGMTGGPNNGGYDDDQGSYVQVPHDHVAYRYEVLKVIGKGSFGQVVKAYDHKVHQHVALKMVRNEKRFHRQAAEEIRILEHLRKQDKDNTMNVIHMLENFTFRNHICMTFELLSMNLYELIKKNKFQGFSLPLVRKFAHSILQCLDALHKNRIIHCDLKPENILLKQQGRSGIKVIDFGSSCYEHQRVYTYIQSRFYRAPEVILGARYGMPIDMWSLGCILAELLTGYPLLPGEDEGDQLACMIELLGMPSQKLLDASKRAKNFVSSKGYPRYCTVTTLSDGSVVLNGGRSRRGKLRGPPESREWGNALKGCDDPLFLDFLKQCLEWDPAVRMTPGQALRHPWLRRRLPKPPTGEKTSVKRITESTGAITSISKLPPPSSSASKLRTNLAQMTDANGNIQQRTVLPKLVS

Measured: number of time points

COc1ccc(N(C(=O)Oc2c(C)cccc2C)c2ccnc(Nc3ccc(N4CCN(C)CC4)cc3)n2)c(OC)c1 (2.5 µM)
0: all assays above

Nc1ncnc2c1ncn2[C@@H]1O[C@@H]2COP(O)(=S)O[C@H]2[C@H]1O (stereo not given in full) [Sp-cAMPS (sodium salt)] (10 µM)
0: all assays above

CN(C)C(=O)c1ccc(Cn2c(C(=O)O)cc3c(Br)cc(Sc4ccc(Cl)c(Cl)c4)cc32)cc1 [Rheb inhibitor NR1] (10 µM)
0: all assays above

O=c1[nH]c2ccccc2n1C1CCN(CCCC(c2ccc(F)cc2)c2ccc(F)cc2)CC1 [Pimozide] (2.5 µM)
0: all assays above

Cc1ccccc1-n1c(Cn2cnc3c(N)ncnc32)nc2cccc(C)c2c1=O (10 µM)
0: all assays above

C[S+]([O-])/C=C/CCN=C=S (stereo not given) [Sulforaphene] (10 µM)
0: all assays above

C=CC(=O)Nc1ccc2[nH]c(=O)n(C3CCN(Cc4ccc(-c5nc6cc[nH]c(=O)c6cc5-c5ccccc5)cc4)CC3)c2c1 [Borussertib] (10 µM)
2: EGFR
0: all other assays above

3 structures already listed, ordered by count of non-hydrogen atoms, smallest number first.
Cc1ccccc1-n1c(Cn2cnc3c(N)ncnc32)nc2cccc(C)c2c1=O (10 µM)
0: all assays above

CN(C)C(=O)c1ccc(Cn2c(C(=O)O)cc3c(Br)cc(Sc4ccc(Cl)c(Cl)c4)cc32)cc1 [Rheb inhibitor NR1] (10 µM)
0: all assays above

COc1ccc(N(C(=O)Oc2c(C)cccc2C)c2ccnc(Nc3ccc(N4CCN(C)CC4)cc3)n2)c(OC)c1 (2.5 µM)
0: all assays above

Further records follow.

C[C@H]1CC[C@]2(NC1)O[C@H]1C[C@H]3[C@@H]4CC[C@H]5C[C@@H](O)CC[C@]5(C)[C@H]4CC[C@]3(C)[C@H]1[C@@H]2C [Tomatidine] (2 µM)
0: all assays above

CC(=O)Oc1ccc(/C=C/c2cc(OC(C)=O)cc(OC(C)=O)c2)cc1 [Triacetylresveratrol] (10 µM)
0: all assays above

CC(C)=CC[C@@H](OC(=O)CC(C)(C)O)C1=CC(=O)c2c(O)ccc(O)c2C1=O [β-Hydroxyisovalerylshikonin] (2.5 µM)
0: all assays above

Reference: the supplement of paper PMC12823440, “Inhibitors supercharge kinase turnover through native proteolytic circuits” (Nature, 2025)
